From PubChem BioAssay AID493014 (National Center for Advancing Translational Sciences (NCATS), 2011)
The list shows a part of the results. Shown are side measurements of this screen, not its main read-out; they come without a call. The list favours compounds with an active or inconclusive main result. Potencies come from curve fits of mixed quality, noted in brackets.

Assay: qHTS Assay to Find Inhibitors of Chronic Active B-Cell Receptor Signaling
Settings: ABC-DLBCL IkBa-CBG/CBR reporter, luminescence ratio (green luciferase fused to IkBa over red control in TMD8 lymphoma cells), 4 h
Method in brief: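 TMD8 ABC-DLBCL cells carrying doxycycline-inducible green luciferase fused to IkappaBalpha plus unfused red luciferase were exposed to compounds (up to 46 uM) for 4 hrs at 37C. Activity came from the overlap-corrected green/red luminescence ratio.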

[1] = measured here: CBR red luminescence, cell number
[2] = measured here: IkBa-CBG green luminescence

Row | SMILES | AC50 [1] | AC50 [2]
1 | CC(=O)N1N=C(c2ccccc2O)OC1(C)CC(=O)Nc1ccccc1 (stereo not given) | 11.6 µM [falling, partial curve] | –
2 | CS(=O)(=O)c1nc(-c2ccco2)cc(C(F)(F)F)n1 | 8.91 µM [falling, partial curve] | 17.8 µM [rising, single point]
3 | O=C(Nc1ccccc1[N+](=O)[O-])C1=C(O)CCn2c1nc1ccccc12 | 0.13 µM [falling, full curve] | –
4 | COc1ccc2nc(Cl)c(/C=N/Nc3ccccn3)cc2c1 | 25.1 µM [rising, single point] | –
5 | C/C(CC(=O)Nc1cccc(C(F)(F)F)c1)=N\NC(=O)C1CCCCC1 | 22.4 µM [falling, single point] | –
6 | COc1cc(OC)cc(C(=O)N[C@H](C(=O)Nc2nc3ccccc3[nH]2)C(C)C)c1 | 3.98 µM [rising, partial curve] | 2.51 µM [falling, full curve]
7 | CCCCC(=O)Nc1cc(Cl)ccc1C(=O)O | 35.5 µM [falling, single point] | –
8 | CCn1c(Cl)c(C=O)s/c1=N\S(=O)(=O)c1ccccc1 | 35.5 µM [falling, single point] | –
9 | COc1ccc(NC(=O)Cn2c(=O)sc3ccccc32)cc1 | 4.11 µM [rising, single point] | 29.1 µM [falling, partial curve, poor fit]
10 | CC(=O)N1c2ccccc2CCc2ccc(N)cc21 | 0.891 µM [falling, full curve] | –
11 | CC(C)CC(=O)Nc1ccc2c(c1)nc(CCN1CCCCC1)n2C | 14.1 µM [falling, single point] | –
12 | N/C(=N\OC(=O)c1ccc(Br)cc1)c1ccncc1 | 1 µM [rising, full curve] | –
13 | C[C@@H]1CN(CCCn2c3ccccc3c3ccccc32)C[C@H](C)N1 | 12.6 µM [falling, partial curve, poor fit] | –
14 | Cc1ccc(C)c(Cn2c(=O)n(-c3ccc(CC(=O)NCc4ccco4)cc3)c(=O)c3sccc32)c1 | 6.51 µM [rising, partial curve] | 10.3 µM [falling, partial curve, poor fit]
15 | CCOc1ccc(NC(=O)COC(=O)CSCC(=O)Nc2ccc(C)cc2C)cc1 | 1.64 µM [rising, partial curve, poor fit] | –
16 | CC(C)NC(=O)NNC(=O)Cn1nnc(-c2cccc(Cl)c2Cl)n1 | 28.2 µM [falling, single point] | –
17 | COc1ccc(N2CCN(CC(=O)c3c(C)n(C)c4ccc(OC)cc34)CC2)cc1 | 0.112 µM [rising, full curve, poor fit] | –
18 | CN(c1cccc(Cl)c1)S(=O)(=O)c1cccc(C(=O)NC2=NCCS2)c1 | 14.1 µM [falling, single point] | –
19 | O=C(N/N=C\c1ccccn1)C1COc2cc3ccccc3cc2O1 (stereo not given) | 1.12 µM [falling, partial curve] | 15.8 µM [falling, partial curve, poor fit]
20 | COc1cccc(NC(=O)c2ccc(CN3CCc4ccccc4C3)cc2)c1 | 25.1 µM [falling, single point] | –

Complete entries, looked up by structure. Order of values: AC50 [1] | AC50 [2]
CCn1c(Cl)c(C=O)s/c1=N\S(=O)(=O)c1ccccc1 as listed: 35.5 µM [falling, single point] | –
O=C(N/N=C\c1ccccn1)C1COc2cc3ccccc3cc2O1 (stereo not given) as listed: 1.12 µM [falling, partial curve] | 15.8 µM [falling, partial curve, poor fit]
CC(C)NC(=O)NNC(=O)Cn1nnc(-c2cccc(Cl)c2Cl)n1 as listed: 28.2 µM [falling, single point] | –

The listing continues:

Row | SMILES | AC50 [1] | AC50 [2]
21 | CCc1cccc(C)c1Nc1nc2ccccc2n2cnnc12 | 0.631 µM [rising, full curve] | –
22 | O=C(CN1C(=O)c2ccccc2C1=O)c1ccc(F)cc1 | 8.91 µM [falling, partial curve, poor fit] | –
23 | Nc1nc(SCc2nc3scc(-c4cccs4)c3c(=O)[nH]2)n[nH]1 | 18.4 µM [rising, single point] | –
24 | c1ccc(CN=C2NN=C(c3ccccc3)CS2)cc1 | 12.6 µM [falling, partial curve, poor fit] | –
25 | COc1c(CC=C(C)C)cc(C2CC(=O)c3c(O)cc(O)cc3O2)cc1CC=C(C)C (stereo not given) | 35.5 µM [falling, single point] | 35.5 µM [rising, partial curve, poor fit]
26 | CC(C)CNC(=O)c1c(F)c(F)c(F)c(F)c1F | 35.5 µM [falling, partial curve, poor fit] | –
27 | CCOc1ccccc1C(=O)OCC(=O)Nc1ncc(C(F)(F)F)cc1Cl | 0.58 µM [rising, full curve] | –
28 | CCN1CC(CNC(=O)c2ccc3nc(Cc4cccc(Cl)c4)oc3c2)CC1=O (stereo not given) | 35.5 µM [rising, single point] | –
29 | COc1cc2cnc(-c3cccnc3)cc2cc1OC | 29.1 µM [rising, single point] | –
30 | CCOC(=O)c1c(C)[nH]c(C)c1C(=O)COC(=O)c1cccc(S(=O)(=O)NC)c1 | 1.78 µM [rising, partial curve, poor fit] | –
31 | O=c1oc2c3c4c(cc2c2c1CCC2)OCCN4CCC3 | 8.91 µM [rising, partial curve, poor fit] | –
32 | CC(C)Nc1nc(NC(C)C)nc(SCCOC(=O)Nc2ccc(Cl)cc2Cl)n1 | 32.6 µM [falling, single point] | –
33 | COc1ccccc1NC(=O)CN(c1ccccc1F)S(C)(=O)=O | 32.6 µM [rising, single point] | –
34 | Cc1nc(C)c(CCNC(=O)c2ccc(C(F)(F)F)cc2)s1 | 0.731 µM [rising, full curve, poor fit] | –
35 | CCN(CC)S(=O)(=O)c1ccc(N2CCOCC2)c(NS(=O)(=O)c2ccc(C)c(C)c2)c1 | 0.517 µM [rising, partial curve, poor fit] | –
36 | COc1cccc(NC(=O)[C@H](NC(=O)[C@@H]2Cc3ccccc3CN2)c2ccccc2)c1 | 4.47 µM [falling, partial curve, poor fit] | –
37 | COc1ccc(S(=O)(=O)N(C)C(C)CCc2ccco2)cc1 (stereo not given) | 12.6 µM [rising, partial curve] | –
38 | Oc1c(C(Nc2cccc(C(F)(F)F)c2)c2cccnc2)ccc2cccnc12 (stereo not given) | 23.1 µM [falling, single point] | –
39 | COc1cccc(N2CCN(CC(=O)C34CC5CC(CC(C5)C3)C4)CC2)c1 | 29.1 µM [rising, single point] | –
